Measured values as given in patent US20130224300A1, “COMPOSITIONS AND METHODS THEREOF FOR ORAL ADMINISTRATION OF DRUGS” (priority 2011, published 2013).

Test: clinical
Conditions: human, plasma, po, 35 mg

CN1C(=O)CN=C(c2ccccc2)c2cc(Cl)ccc21 [diazepam]
Cmax: ~270 ng/mL
Tmax: ~1.5 h
